Data as given in patent US10301520B2, “Compositions of hydrochlorofluoroolefins” (Arkema Inc., priority 2008, dated 2019).

Columns and labels:
[1] = Material compatibility with elastomer, linear swelling; conditions: EPDM; boiling point of E-1233zd, more than 72 hours
[2] = as above; conditions: Silicone Rubber; boiling point of E-1233zd, more than 72 hours
[3] = as above; conditions: Natural Rubber; boiling point of E-1233zd, more than 72 hours

SMILES	Linear Swell [1] [%]	Linear Swell [2] [%]	Linear Swell [3] [%]
FC(F)(Cl)C(F)(Cl)Cl [CFC 113]	7.9	36.6	4.9
FC(F)(F)/C=C/Cl [E-1233zd, 1-chloro-3,3,3-trifluoropropene]	5.0	23.0	10.0
